Experimental data: article PMC10533516, “The Dictyostelium discoideum FimA protein, unlike yeast and plant fimbrins, is regulated by calcium similar to mammalian plastins” (Scientific Reports, 2023)
No constants are given. Whether binding was seen depends on the method and setting.

Target: T1, FimA-EF-N81ter (EF-hand domain of the Dictyostelium discoideum FimA headpiece, residues 1-80, lacking the H5 region) (Dictyostelium discoideum) (UniProt P54680)
T1 sequence: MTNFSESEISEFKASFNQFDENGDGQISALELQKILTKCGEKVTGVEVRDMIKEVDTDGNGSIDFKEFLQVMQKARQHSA
Assay: NMR titration; H5 peptide titrated into FimA-EF-N81ter in the presence of the calmodulin antagonists W7 or TFP, 1H,15N-HSQC; 25 °C, 100 mM KCl, 20 mM Bis-Tris pH 7.0; both purified

B1: H5 peptide (14-residue synthetic peptide encompassing the H5 / putative regulatory switch-helix region of FimA) (peptide)
peptide: SANASPAFASAVKK
modifications: N-terminal acetyl (Ac-); C-terminal amide (-NH2)
- binding: no binding (condition: in the presence of W7 or TFP)
